The target in this data set is CYP3A4 (Homo sapiens, UniProt P08684). The conditions noted are these: in vivo.

Protein sequences, listed by entry. Tags and fused reporters are not part of them.
UniProt P08684, whole entry: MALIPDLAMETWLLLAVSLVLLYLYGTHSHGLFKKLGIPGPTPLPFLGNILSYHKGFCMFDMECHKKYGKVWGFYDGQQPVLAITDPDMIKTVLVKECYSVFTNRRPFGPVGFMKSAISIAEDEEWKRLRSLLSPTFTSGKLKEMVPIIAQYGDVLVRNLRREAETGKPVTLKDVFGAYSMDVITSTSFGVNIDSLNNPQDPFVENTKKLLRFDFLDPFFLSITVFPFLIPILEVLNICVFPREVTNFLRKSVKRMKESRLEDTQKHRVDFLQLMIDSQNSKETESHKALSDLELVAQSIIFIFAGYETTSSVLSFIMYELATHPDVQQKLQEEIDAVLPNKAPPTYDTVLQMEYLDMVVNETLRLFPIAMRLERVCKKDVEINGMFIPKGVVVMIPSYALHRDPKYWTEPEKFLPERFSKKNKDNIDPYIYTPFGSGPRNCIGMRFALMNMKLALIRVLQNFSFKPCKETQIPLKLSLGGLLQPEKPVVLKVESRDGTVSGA

Regarding `CC(C)c1c(C(=O)Nc2ccccc2)c(-c2ccccc2)c(-c2ccc(F)cc2)n1CC[C@@H](O)C[C@@H](O)CC(=O)O` [Atorvastatin, atorvastatin], the “Dose ratio (T carrier/non-Tcarrier)” value is on record as 0.22.

For the origin of these results see US9441275B2, “Polymorphism in CYP3A4 gene affecting drug metabolizing and uses thereof” (Ohio State Innovation Foundation, priority 2009, dated 2016).
